In this test the target is Factor H (UniProt P08603). In words: ELISA; FH coated (10 µg/ml); NP1 and NP2 2.5–20 µg/ml, PTX3 1.2–10 µg/ml in solution; bound pentraxins detected with anti-His-tag antibody; both purified.

Chains of the proteins cited; added tags and fusions are not shown. Residues count along the entry.
UniProt P08603, residues 19-1231: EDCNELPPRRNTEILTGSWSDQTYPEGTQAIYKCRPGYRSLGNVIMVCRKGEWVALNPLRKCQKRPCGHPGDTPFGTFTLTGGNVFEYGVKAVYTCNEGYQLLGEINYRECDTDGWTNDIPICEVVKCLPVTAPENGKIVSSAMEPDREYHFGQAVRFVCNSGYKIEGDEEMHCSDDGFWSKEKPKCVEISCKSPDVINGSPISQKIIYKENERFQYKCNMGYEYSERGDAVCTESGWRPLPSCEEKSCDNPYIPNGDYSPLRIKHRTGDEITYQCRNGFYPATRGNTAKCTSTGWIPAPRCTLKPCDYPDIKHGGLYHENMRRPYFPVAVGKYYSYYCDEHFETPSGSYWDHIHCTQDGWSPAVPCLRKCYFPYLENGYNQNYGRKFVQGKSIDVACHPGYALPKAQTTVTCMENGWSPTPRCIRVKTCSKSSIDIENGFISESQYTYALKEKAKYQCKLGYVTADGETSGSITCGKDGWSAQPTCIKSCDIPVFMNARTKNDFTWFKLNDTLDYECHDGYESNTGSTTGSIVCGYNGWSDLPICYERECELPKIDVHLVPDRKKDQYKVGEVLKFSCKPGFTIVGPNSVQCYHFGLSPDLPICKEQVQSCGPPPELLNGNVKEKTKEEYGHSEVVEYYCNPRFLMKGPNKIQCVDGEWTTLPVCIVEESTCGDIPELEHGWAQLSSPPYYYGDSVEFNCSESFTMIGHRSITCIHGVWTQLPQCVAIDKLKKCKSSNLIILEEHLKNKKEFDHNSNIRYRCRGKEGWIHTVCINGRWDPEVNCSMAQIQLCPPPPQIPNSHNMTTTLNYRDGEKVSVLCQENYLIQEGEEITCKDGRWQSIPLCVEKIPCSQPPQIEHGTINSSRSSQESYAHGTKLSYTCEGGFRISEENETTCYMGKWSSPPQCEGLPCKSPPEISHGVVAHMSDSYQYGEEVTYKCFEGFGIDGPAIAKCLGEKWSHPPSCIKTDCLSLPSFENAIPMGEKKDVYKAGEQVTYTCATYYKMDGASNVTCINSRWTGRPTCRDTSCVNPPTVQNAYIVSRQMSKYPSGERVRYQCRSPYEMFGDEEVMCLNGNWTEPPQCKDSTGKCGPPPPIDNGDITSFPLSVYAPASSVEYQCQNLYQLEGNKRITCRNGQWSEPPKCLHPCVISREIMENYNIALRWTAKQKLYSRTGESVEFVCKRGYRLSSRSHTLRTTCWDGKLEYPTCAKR
UniProt P26022, residues 18-381: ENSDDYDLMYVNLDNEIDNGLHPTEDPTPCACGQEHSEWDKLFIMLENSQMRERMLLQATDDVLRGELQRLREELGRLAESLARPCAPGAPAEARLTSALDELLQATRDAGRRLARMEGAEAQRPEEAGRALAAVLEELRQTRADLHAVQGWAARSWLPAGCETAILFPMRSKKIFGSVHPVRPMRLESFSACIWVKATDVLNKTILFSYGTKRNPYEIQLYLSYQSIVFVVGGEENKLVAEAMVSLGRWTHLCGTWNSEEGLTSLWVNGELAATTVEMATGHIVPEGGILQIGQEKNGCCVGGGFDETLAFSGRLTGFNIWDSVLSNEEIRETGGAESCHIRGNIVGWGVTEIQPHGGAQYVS

No constants are given. Whether binding was seen depends on the method and setting. Some binding calls cover weakened binding; strength is not graded here.

In the case of “His-tagged human pentraxin 3 (from UniProt P26022 18-381)”, the binding result is on record as “binds”.

The record behind these values is PMC7897678.
